Test results taken from paper PMC3206016, “Putting into Practice Domain-Linear Motif Interaction Predictions for Exploration of Protein Networks” (PLoS ONE, 2011).
No constants are given. Whether binding was seen depends on the method and setting. Some entries that bind do so weakly or less than the wild type.

Amino acid sequences for entries named in this document (tags omitted). Residues count along the entry.
MAGI1-2/6 (MBP fusion of the second of the six PDZ domains of MAGI1) (Q6RHR9, residues 448-572): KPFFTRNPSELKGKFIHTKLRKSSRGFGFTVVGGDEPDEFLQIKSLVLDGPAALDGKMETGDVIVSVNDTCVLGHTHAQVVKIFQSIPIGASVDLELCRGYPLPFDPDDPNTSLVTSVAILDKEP
MAGI1-3/6 (MBP fusion of the third of the six PDZ domains of MAGI1) (Q6RHR9, residues 613-752): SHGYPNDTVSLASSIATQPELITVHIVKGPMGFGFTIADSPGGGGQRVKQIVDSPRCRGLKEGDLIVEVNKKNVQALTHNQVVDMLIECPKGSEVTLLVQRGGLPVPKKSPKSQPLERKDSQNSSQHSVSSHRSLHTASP
SCRIB-34/4 (MBP fusion of the tandem of the third and fourth PDZ domains of SCRIB) (Q14160, residues 997-1193): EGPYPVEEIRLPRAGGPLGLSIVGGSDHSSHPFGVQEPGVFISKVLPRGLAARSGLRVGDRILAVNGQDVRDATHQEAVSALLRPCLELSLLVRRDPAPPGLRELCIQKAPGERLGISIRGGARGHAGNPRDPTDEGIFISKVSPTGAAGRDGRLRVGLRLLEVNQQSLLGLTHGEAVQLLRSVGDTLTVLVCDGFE
SCRIB-4/4 (MBP fusion of the fourth of the four PDZ domains of SCRIB) (Q14160, residues 1097-1193): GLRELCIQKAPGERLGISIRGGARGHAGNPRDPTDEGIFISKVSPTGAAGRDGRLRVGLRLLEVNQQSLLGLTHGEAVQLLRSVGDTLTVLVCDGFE

Assays:
[1] = target: T1, VANG2_05 (short peptide of Vang-like protein 2: GSGAG and the last five residues) (human); assay: SPR; both purified
T1 sequence (peptide, biotin at N-terminus): GSGAGSETSV

[2] = target: T2, TAX1_10 (long peptide of the Trans-activating transcriptional regulatory protein of HTLV-1: the last ten residues) (HTLV-1A); assay: SPR; both purified
T2 sequence (peptide, biotin at N-terminus): SEKHFRETEV

Substance	binding [1]	binding [2]
MAGI1-2/6 (MBP fusion of the second of the six PDZ domains of MAGI1) (from UniProt Q6RHR9-1 448-572) (domain or fragment)	no binding (tested: 10 µM (analyte injected up to 30 µM))	–
SCRIB-34/4 (MBP fusion of the tandem of the third and fourth PDZ domains of SCRIB) (from UniProt Q14160-1 997-1193) (domain or fragment)	–	binds
SCRIB-4/4 (MBP fusion of the fourth of the four PDZ domains of SCRIB) (from UniProt Q14160-1 1097-1193) (domain or fragment)	no binding (tested: 10 µM (analyte injected up to 30 µM))	–
MAGI1-3/6 (MBP fusion of the third of the six PDZ domains of MAGI1) (from UniProt Q6RHR9-1 613-752) (domain or fragment)	no binding (tested: 10 µM (analyte injected up to 30 µM))	–
